Results of single-concentration screens

Data taken from ChEMBL document CHEMBL3988442, “University of Dundee, Small-Polar-MMV Screening Library” (2021).

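Whole-parasite assay of Trypanosoma brucei over 72 hours; the read-out is not stated. Tested at 30 µM. Higher reads as stronger inhibition (inferred: compounds with an IC50 in retests scored well above the rest). Values scatter widely below zero; nearly all retest evidence comes from the higher of the two concentrations used. Size under these conditions: about 64,000 compounds, about 940 of them at 50% or above in at least one test.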

Values are the deposited “Percent Effect”, in %. How 0% and 100% were set is not recorded. Most values in the screen are low, and negative values occur. This is an unselected part of the compounds tested.

Compound,Percent Effect
CCc1nc(CN2CCCC(NCc3cnc(C)s3)C2)no1 (centres unmarked),-42.66%
O=C(O)C1(Oc2cccc(F)c2)CCN(C2CCOCC2)CC1,-22.66%
CC(CN1CCC2(CC1)N=C(N(C)C)NC2=O)c1ccccc1 (centres unmarked),-29.84%
[H][C@@]12CCCO[C@]1([H])[C@H](N1CCOCC1)CN(C(=O)c1cccn1C)C2,-25.02%
O=C(O)C(F)(F)F.O=C(O)C(F)(F)F.[H][C@@]12COC[C@]1([H])[C@H](OCc1ccccn1)CN2Cc1ccc(F)cc1,-56.93%
Cn1cc(CN2CCC(F)(F)C3(CCN(c4ccccn4)C3)C2)cn1.O=C(O)C(F)(F)F.O=C(O)C(F)(F)F (centres unmarked),-14.43%
Cn1cc(CN2CCOC3(CCCN(c4cccc(F)c4)C3)C2)cn1.O=C(O)C(F)(F)F.O=C(O)C(F)(F)F (centres unmarked),-12.05%
CCC(CNC(=O)Cn1ccnc1)Oc1cccc(F)c1 (centres unmarked),-43.37%
Cc1cc(S(=O)(=O)N2CCC(N3CCC(O)C3)CC2)c(Cl)cc1Cl (centres unmarked),-17.9%
COc1ccc(NC(=O)c2nc(C)sc2C(C)C)cn1,15.19%
CC(C)(C)Oc1ccccc1CNC(=O)C1CCCOC1 (centres unmarked),-16%
Cc1nc(CCNC(=O)Nc2cc(C(F)(F)F)c[nH]c2=O)cs1,9.216%
CC(C)CN1CC2(CCN(C(=O)c3cnccn3)CC2)CC1=O,-24.92%
O=C(C1CC1)N1CCC2(CCCN2Cc2ccc(F)cc2)CC1.O=C(O)C(F)(F)F,12.82%
CCN(CC)C(=O)Cn1c(C)cc2nc(SC)n(CC(C)C)c(=O)c21,-35.93%
Cc1cc(NC(=O)CN2CCn3c(nnc3C(C)C)C2)no1,-59.03%
COc1ccc(CNC(=O)c2nn(C)c3c2CS(=O)(=O)CC3)cc1,5.973%
NC(=O)NC(=O)CCN1CCCN(c2nccs2)CC1,-12.92%
COc1ccc(C)cc1-n1ccc(C(=O)NCC2CCCOC2)n1 (centres unmarked),-13.38%
COc1cc(N2C[C@@H](C)[C@](O)(C3CC3)C2)ncn1,-4.77%
CCOC(=O)CNC(=O)c1scnc1C,-6.513%
O=C(CC1CCCC1)N1CCC2(CC1)[C@H](O)C[C@@H]2O,-2.282%
O=C(Nc1ccc(OC2CCCC2)cc1)C1CCCN1c1nccs1 (centres unmarked),83.44%
CCn1cc(-c2cc(C(F)(F)F)n(CCCN)n2)cn1,-42.02%
Cc1ccc2nc(-c3nc4c([nH]3)CCCNC4=O)cn2c1,99.29%
O=c1[nH]c2nc(NC3CC3)ncc2c(=O)n1-c1ccc(F)cc1,-15.34%
Cn1nc(C(=O)N2CCOCC2)cc1C(=O)Nc1c(Cl)cccc1Cl,-27.89%
CCn1ccc(NC(=O)CN2C(=O)C(C)(C)c3ccccc32)n1,-2.371%
O=C(NCC(F)(F)F)c1ccc(-c2ccco2)[nH]c1=O,-15.9%
Cc1cnn(CCNCc2cccnc2)c1,16.29%
CCOC(=O)c1sc(NC(=O)CN(C)S(C)(=O)=O)c(C#N)c1C,-8.874%
CC(=O)N1CCc2cc(C(=O)O)c(-c3ccsc3)nc2CC1.O=C(O)C(F)(F)F,-60.93%
CCc1nccn1C1CCCN(C(=O)Cc2cn3ccccc3n2)C1 (centres unmarked),4.021%
Cc1cnc(CCN(C)C(=O)c2cccc(C)c2O)s1,-8.898%
CCc1nn(C)c(Cl)c1CN1C[C@H](NC(=O)CCO)[C@@H](C(C)C)C1,-1.048%
O=C(CNc1ccccc1Cl)Nc1cc(-n2cnnn2)ccc1F,-14.03%
Cl.NCc1ccc(Oc2ccc(F)c(F)c2)cc1C(F)(F)F,-174.3%
CCc1oc(C(=O)N(C)Cc2nonc2C)cc1CN(CC)CC,-3.069%
CCc1nc2ccccc2n1C(CC)C(=O)N(C)Cc1noc(C)n1 (centres unmarked),-37.88%
CN1CCCC(CCC(=O)NCCc2nnc(N)s2)C1 (centres unmarked),1.066%
[H][C@@]12COC[C@@H](C(=O)N3CCCO3)[C@]1([H])CN(Cc1c(C)noc1C)C2,79.91%
Cc1ccc(NC(=O)c2ccc(CC3CC(=O)NC3=O)cc2)cc1O (centres unmarked),-24.07%
Cn1ccnc1CN1CCN(Cc2noc(-c3ccccc3)n2)CC1,33.25%
Cc1ccc(NC(=O)NCC2CCS(=O)(=O)C2)cc1Cl (centres unmarked),1.499%
CC(C)Oc1ccccc1C1CC(=O)Nc2c1cnn2C (centres unmarked),11.51%
Cc1cccc(CCC(=O)N2CCCC(c3cc(C(N)=O)[nH]n3)C2)c1 (centres unmarked),8.51%
O=C1COc2cc(C(=O)NS(=O)(=O)c3cc(Cl)ccc3Cl)ccc2N1,15.49%
Cc1cc(=O)n2ncnc2n1CC(O)c1ccccc1F (centres unmarked),-29.57%
[H][C@@]12CNC[C@]1([H])CN(Cc1c(C)noc1C)C2,-41.33%
O=C1COc2ccc(S(=O)(=O)NCc3ccccc3)c3c2N1CCC3,-22.64%
Cc1noc(C)c1CCC(=O)NC(C)c1nnc2n1CCCCC2 (centres unmarked),-25.96%
COCCOCCCNC(=O)c1cc(Cl)cc2cccnc12,-5.904%
O=C(NCC1Cn2nnc(-c3ccncc3)c2CO1)c1ccc[nH]1 (centres unmarked),6.719%
[H][C@]12CN(Cc3ccc(C)c(C)c3)CC[C@@]1(O)CCN(S(=O)(=O)N(C)C)C2,-19.03%
CCN(CC(=O)NC(C)C)S(=O)(=O)N1CCC(C)C1 (centres unmarked),-50.11%
Cc1[nH]ccc1C(=O)Nc1cccc(CN2CCC(O)CC2)c1,3.279%
c1cnnc(N2CCCC(NCc3nc(-c4ccco4)no3)C2)c1 (centres unmarked),-67.85%
Cc1cc(C(=O)N2CCc3c(CN(C)C)nn(C)c3C2)[nH]n1,-50.33%
CCN1CCN(C(C)CNC(=O)Nc2nnc(C)s2)CC1 (centres unmarked),3.064%
O=S(=O)(Cc1ccc(F)c(Cl)c1)NC(CO)c1ccco1 (centres unmarked),-1.858%
CSc1ccccc1NC(=O)CCN1CCC(C(=O)N(C)C)CC1,-1.208%
COCCn1cc(C(=O)N2CCCC2c2cc(C)on2)c2ccccc21 (centres unmarked),-38.62%
CC(=O)N1CCC(Cc2cnc(C(=O)N3CCCC3)cn2)C1 (centres unmarked),-8.029%
Cc1ncsc1C(=O)NCC1SCCc2ccccc21 (centres unmarked),-29.99%
Cc1cc(CNC(=O)N2CCc3ccccc3C2CO)c(C)o1 (centres unmarked),-3.469%
COCc1nc2cc(NCc3nc(C)cs3)ccc2o1,-37.51%
CCNC(=O)CN(CC)Cc1nc2c(F)cccc2n1CC,-31.32%
CCCc1cc(C(=O)N(C)Cc2cnn(-c3cccc(OC)c3)c2)[nH]n1,19.72%
O=C(O)C(F)(F)F.[H][C@@]12CN(c3cc(OC)ncn3)CCC[C@]1(C(=O)O)CN(C(C)C)C2,-44.78%
O=C(NCc1ccco1)N1CCC(n2cc(-c3ccccn3)nn2)CC1,-12.39%
[H][C@]12CC[C@]([H])(CN(C(=O)CCn3cccn3)C1)N(Cc1ccccn1)C2=O,2.259%
Cc1cc(C)n(-c2cncc(N3CCN(C(=O)C(C)C)CC3)n2)n1,-18.28%
CN(C)c1ncc(-c2ccc(C(N)=O)cc2)c(C2CNCCO2)n1 (centres unmarked),-0.3835%
Cc1noc(C(C)N2CCN(c3ncnc4ccccc34)CC2)n1 (centres unmarked),-12.45%
Cc1ocnc1C(=O)N1CCC2(CC1)c1nc[nH]c1CCN2CC(C)C,-5.389%
Cc1ccc(CN2Cc3nnn(C)c3C(COCc3ccccc3)C2)o1.O=C(O)C(F)(F)F (centres unmarked),-6.349%
[H][C@@]12CC(=O)N(CC)[C@@]1([H])CCN2S(=O)(=O)c1cccc(C)c1,-8.519%
Cc1cc(NC(=O)CN2CCn3c(nnc3C(C)C)C2)n(C)n1,-29.32%
CC(C)(C)C(=O)N1CCN(Cn2nccc2-c2cccnc2)CC1,-19.21%
COc1cc(C(=O)NS(=O)(=O)c2cccc(C#N)c2)ccc1C,12.4%
O=C(c1cn(-c2ccccc2)nn1)N1CCOCC(O)C1 (centres unmarked),5.952%
CN(Cc1ccc(Cl)s1)C(=O)CN(C)C1CCCc2ccccc21 (centres unmarked),-56.95%
O=C(O)C(F)(F)F.O=C(c1nc2c(o1)CN(CC1CCC1)C2)N1CCCC1,-23.39%
CCC(C)NC(=O)c1ccccc1-n1cnnn1 (centres unmarked),32.17%
O=c1[nH]c(-c2ccncc2)nc2c1CCN(S(=O)(=O)N1CCCC1)C2,-18.7%
NCCn1cc(C(=O)NCc2ccccc2-n2cccn2)nn1,-3.389%
Cc1nsc(NC(=O)NC2(CN3CCOCC3)CCCCC2)n1,-24.46%
Cn1cc(CN2CCC3(CCCN(C(=O)c4cscn4)C3)C2)cn1 (centres unmarked),-17.47%
CCC(NC(=O)c1cccc2cc[nH]c12)C(=O)N1CCOCC1 (centres unmarked),-13.69%
O=C(O)c1ccccc1-n1cc(CN2CCC(c3cc[nH]n3)C2)cn1 (centres unmarked),3.397%
Cc1nc(C2(O)CCCNCC2)sc1CCOc1ccccc1Cl.Cl (centres unmarked),102.3%

For reference, 10 entries once more:

- CSc1ccccc1NC(=O)CCN1CCC(C(=O)N(C)C)CC1 | -1.208%
- CCNC(=O)CN(CC)Cc1nc2c(F)cccc2n1CC | -31.32%
- O=C1COc2ccc(S(=O)(=O)NCc3ccccc3)c3c2N1CCC3 | -22.64%
- Cc1cc(S(=O)(=O)N2CCC(N3CCC(O)C3)CC2)c(Cl)cc1Cl (centres unmarked) | -17.9%
- Cn1cc(CN2CCC(F)(F)C3(CCN(c4ccccn4)C3)C2)cn1.O=C(O)C(F)(F)F.O=C(O)C(F)(F)F (centres unmarked) | -14.43%
- O=C(O)C(F)(F)F.[H][C@@]12CN(c3cc(OC)ncn3)CCC[C@]1(C(=O)O)CN(C(C)C)C2 | -44.78%
- COCCn1cc(C(=O)N2CCCC2c2cc(C)on2)c2ccccc21 (centres unmarked) | -38.62%
- COc1ccc(CNC(=O)c2nn(C)c3c2CS(=O)(=O)CC3)cc1 | 5.973%
- O=C(CC1CCCC1)N1CCC2(CC1)[C@H](O)C[C@@H]2O | -2.282%
- O=C(Nc1ccc(OC2CCCC2)cc1)C1CCCN1c1nccs1 (centres unmarked) | 83.44%